Numbering of substitutions follows the chain as printed. No constants are given. Whether binding was seen depends on the method and setting. Some binding calls cover weakened binding; strength is not graded here.
Columns and labels:
[1] = biological target: human PD-1 (wild-type), expressed on cells (human) (UniProt Q15116); test: flow cytometry on PD-1-expressing cells
[2] = biological target: substituted human PD-1, domain #1 replaced with the corresponding amino acid sequence of mouse PD-1 (human; mouse) (UniProt Q15116); test: flow cytometry on cells expressing substituted human PD-1

The chains behind the UniProt entries cited, without tags or fusion partners. Where a name states a change or a piece, a line headed by the entry shows the natural chain unless it says otherwise.
UniProt Q15116: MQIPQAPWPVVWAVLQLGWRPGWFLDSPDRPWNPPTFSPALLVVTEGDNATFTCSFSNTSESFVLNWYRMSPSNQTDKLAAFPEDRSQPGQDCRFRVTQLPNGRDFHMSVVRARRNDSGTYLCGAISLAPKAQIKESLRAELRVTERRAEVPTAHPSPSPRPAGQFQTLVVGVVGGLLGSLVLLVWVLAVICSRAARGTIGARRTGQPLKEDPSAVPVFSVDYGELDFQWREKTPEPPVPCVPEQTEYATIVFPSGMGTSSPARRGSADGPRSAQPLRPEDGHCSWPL

B1: HM698 (antibody, V domains shown)
VH: EVLLQQSGPELVKPGASVKIPCKASGYTFTDYNMDWVKQSHGKSLEWIGDIDPNNGGTVYNQKFKGKASLTVDKSSSTAYMELRSLTSEDTAVYYCARWRSAMDYWGQGTSVTVSS
VL: DIQMTQTTSSLSASLGDRVTISCRASQDISNYLNWYQQKPDGTVKLLIYYTSRLHSGVPSRFSGSGSGTDYSLTISNLEQEDIATYFCQQYNTLPWTFGGGTKLEIKR
**Q.** B1 was tested. Which binding [1] did it give?
**A.** Its binding is “binds”.

**Q.** And the binding [2]?
**A.** The binding was “binds”.

B2: HM647 (antibody, V domains shown)
VH: B1 VH with P21T, G66D, A79G
VL: B1 VL with T7P, Y49S, E81V, N92S, T102S
**Q.** Which binding [1] does the source give for B2 here?
**A.** The binding was “binds”.

**Q.** And the binding [2]?
**A.** The binding was “binds”.

B3: HM624 (antibody, V domains shown)
VH: B1 VH with K13Q, A16T, P21F, M34I, L45H, S69T, S77T, A97T, S101G, Q108R
VL: B1 VL with I29V, Y50D, R53K, S76R, N77D, L78P, E79D, Y91G, N92H, K107R
**Q.** For B3, which binding [1] is on record?
**A.** Its binding is “binds”.

— patent US20240317859A1
